Values of other authors, collected in PMC4303912, “A primary fish gill cell culture model to assess pharmaceutical uptake and efflux: Evidence for passive and facilitated transport” (Aquatic Toxicology (Amsterdam, Netherlands), 2015).
Marks after values point to notes of the source that are not given here.

Set-up: method as in AstraZeneca, 2014
Conditions: experimentally measured values; pH 7.4; ref AstraZeneca, 2014; cited from earlier work

In the case of `COc1ccc(CC(C)NCC(O)c2ccc(O)c(NC=O)c2)cc1` (stereo not shown) [Formoterol, formoterol], the “log Kow” value is listed as 0.41 ^*.
